# These are yes or no findings as the source states them, for the method shown. Binding seen in cells or lysates may run through a third protein. Some results given as binding are weak or reduced against the parent protein; the word gives no strength.
# Chains of the proteins cited; added tags and fusions are not shown.
# UniProt P20263: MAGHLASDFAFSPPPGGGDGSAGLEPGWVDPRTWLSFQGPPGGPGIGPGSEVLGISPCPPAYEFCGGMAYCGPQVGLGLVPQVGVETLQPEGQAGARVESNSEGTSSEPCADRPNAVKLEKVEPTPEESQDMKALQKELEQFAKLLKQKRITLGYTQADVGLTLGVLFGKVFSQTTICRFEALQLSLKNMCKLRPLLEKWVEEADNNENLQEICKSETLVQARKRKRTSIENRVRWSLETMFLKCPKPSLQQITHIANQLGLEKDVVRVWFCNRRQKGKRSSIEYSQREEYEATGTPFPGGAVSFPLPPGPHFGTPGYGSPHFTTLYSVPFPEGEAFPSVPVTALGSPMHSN
# B1: Mouse zinc finger protein 322a (Zfp322a) (protein, UniProt Q8BZ89 1-410)
# chain: MENHLGENHRRCTLQKRNVTRELKKGKHTMYALKRVKKIYIRVHEITQIDNQTYQCLEREQNFCENLARMCERTYTEEKPYRCDMCEKTFIQSSDLISHQRIHNYEKPYKCSKCEKSFWHHLALSGHQRTHAGKKFYTCDICGKNFGQSSDLLVHQRSHTGEKPYLCNECDKCFSRSTNLIRHRRTHTGEKPFKCLECEKAFSGKSDLISHQRTHTGERPYKCNKCEKSYRHRSAFIVHKRVHTGEKPYKCGACEKCFGQKSDLIVHQRVHTGEKPYKCLECMRSFTRSANLIRHQATHTHTFKCLEYEKSFNCSSDFIVHQRIHMEEKPHQWSMCESDFLLGMDFVAQQKMRAQTEELHYKYSVCDKTFHHSSALLQHQTVHIDDEYICNMSEKGLDLSSHASETSRVS
# Molecular target: Oct4 (mouse (endogenous in mES cells)) (UniProt P20263)
# Assay: co-IP; lysate of wild type mouse ES cells; immunoprecipitated with anti-ZNF322A or anti-Oct4 antibody, Western blot with anti-Oct4 or anti-ZNF322a antibody; control IP with anti-IgG antibody
binder,measurement,value
B1,binding,binds
